PubChem BioAssay AID1224826, NIAID – 2016
Shown is an unselected part of about 17,000 deposited reagents. About 1,110 of all reagents (6.6%) count as active. 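Active means lowered or raised reporter signal; replicate intensities are raw and not normalised per plate.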 A number with no mark means an inactive call.

Test: 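Genes that change LPS-induced Tnf promoter activity in mouse macrophages when knocked down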 (primary screen)
Cells: RAW264.7 G9 macrophages from mouse bearing reporters for p65 (GFP) and the Tnf promoter (mCherry)
Knock-down reagent: siRNA pool against mouse genes, 100 nM
Time to read-out: 16 h of LPS stimulation, after 2 days of siRNA transfection
Conditions: bacterial lipopolysaccharide (Salmonella minnesota R595), 10 ng/ml
Detection: 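Nuclear mCherry signal of the Tnf promoter reporter measured by imaging after background removal, scaled to each plate median and turned into robust z-scores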
Reading the numbers: Tnf reporter robust z-score: higher = stronger Tnf promoter reporter signal after LPS; Tnf reporter intensity: higher = stronger Tnf promoter reporter signal
Rule for the call: 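Called active when robust z-score is at most -1.3, matching the median of the Tlr4 knock-down control, or over 3; control wells and wells with under 50 cells never active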
Meaning of the calls: active = Tnf reporter clearly lowered or raised; inactive = no clear change in Tnf reporter

gene | PubChem SID | Tnf reporter robust z-score | fewer than 50 cells in well | Tnf reporter intensity, replicate 1 | Tnf reporter intensity, replicate 2
Nsmce3 | SID315472563 | 2.49 | enough cells in well | 336 | 240
Timp1 | SID315469726 | 0.3 | enough cells in well | 239 | 159
Clec1a | SID315479695 | -0.65 | enough cells in well | 121 | 126
Spart | SID315478696 | 0.11 | enough cells in well | 276 | 234
Cul4b | SID315474584 | 0.11 | enough cells in well | 271 | 183
Or4a47 | SID315480595 | 0.8 | enough cells in well | 237 | 148
Parvb | SID315477208 | -0.65 | enough cells in well | 118 | 78.7
Mc3r | SID315467855 | -0.25 | enough cells in well | 195 | 275
Rrp1b | SID315474554 | – | fewer than 50 cells per well; well left out of calls | 122 | 28.4
Gpn1 | SID315474922 | 0.85 | enough cells in well | 121 | 205
Or1q1 | SID315480275 | -1.55 (active) | enough cells in well | 99.5 | 48.4
Serpina3k | SID315469414 | 1.17 | enough cells in well | 130 | 154
Idh1 | SID315467370 | -0.5 | enough cells in well | 178 | 96.5
Sesn1 | SID315477145 | -0.3 | enough cells in well | 227 | 213
Gosr2 | SID315471573 | -0.39 | enough cells in well | 172 | 195
Papolb | SID315471589 | -0.98 | enough cells in well | 116 | 72.4
Hadha | SID315476098 | 0.64 | enough cells in well | 292 | 227
Gulo | SID315480797 | 1.23 | enough cells in well | 386 | 206
F13b | SID315466599 | -0.32 | enough cells in well | 206 | 204
Ankrd16 | SID315481402 | 0.74 | enough cells in well | 233 | 204
Or9a4 | SID315480066 | – | fewer than 50 cells per well; well left out of calls | 50.9 | 60.7
Ctf2 | SID315479747 | 1.47 | enough cells in well | 298 | 241
N4bp1 | SID315475719 | -0.06 | enough cells in well | 181 | 228
Or13p5 | SID315480490 | 0.85 | enough cells in well | 242 | 148
Tmem121b | SID315476021 | -0.71 | enough cells in well | 109 | 156
Hnrnpr | SID315474940 | 1.38 | enough cells in well | 387 | 223
Fam13b | SID315478415 | -0.25 | enough cells in well | 154 | 153
Fam120b | SID315473089 | – | fewer than 50 cells per well; well left out of calls | 217 | 49.4
Usp37 | SID315481142 | -0.37 | enough cells in well | 155 | 119
Tcl1b2 | SID315470594 | – | fewer than 50 cells per well; well left out of calls | 0 | 0
Satb2 | SID315477759 | -0.33 | enough cells in well | 136 | 91.7
Rwdd4a | SID315477390 | -0.22 | enough cells in well | 200 | 181
Rpl18 | SID315469009 | -0.83 | enough cells in well | 72.9 | 111
Atp6v0c | SID315465573 | 0.44 | enough cells in well | 211 | 174
Supt20 | SID315471684 | 0.74 | enough cells in well | 309 | 264
Ear2 | SID315466418 | -0.25 | enough cells in well | 155 | 115
Gtf2h1 | SID315467070 | 2.14 | enough cells in well | 336 | 99.7
U2surp | SID315473335 | – | fewer than 50 cells per well; well left out of calls | 181 | 38.6
Wasl | SID315474688 | 0.09 | enough cells in well | 308 | 203
Robo3 | SID315468910 | 0.88 | enough cells in well | 150 | 181
Tbc1d22b | SID315481768 | -0.74 | enough cells in well | 89.8 | 113
Rnf112 | SID315470100 | 0.74 | enough cells in well | 0 | 161
Med10 | SID315470671 | -0.96 | enough cells in well | 120 | 125
Or52d1 | SID315480663 | 3.87 (active) | enough cells in well | 241 | 253
Zfp354b | SID315470561 | 1.28 | enough cells in well | 224 | 127
Hdgfl2 | SID315467172 | 0.92 | enough cells in well | 269 | 250
Optn | SID315474267 | 0.65 | enough cells in well | 295 | 221
Galt | SID315466824 | -0.37 | enough cells in well | 231 | 201
Ptgs2 | SID315468781 | -0.99 | enough cells in well | 141 | 148
Art4 | SID315476860 | 1.47 | enough cells in well | 295 | 205
Thrb | SID315469712 | -0.75 | enough cells in well | 208 | 79
Zfp617 | SID315477260 | -1.8 (active) | enough cells in well | 50.1 | 46.5
Grin2c | SID315467036 | 0.6 | enough cells in well | 311 | 280
Actl7b | SID315465272 | 0.26 | enough cells in well | 196 | 170
Dok7 | SID315478868 | 0.63 | enough cells in well | 134 | 199
Calml4 | SID315475156 | -0.2 | enough cells in well | 167 | 146
Or4k51 | SID315480516 | 1.18 | enough cells in well | 282 | 148
Casd1 | SID315477828 | -0.12 | enough cells in well | 136 | 199
Osbpl11 | SID315476533 | 0.35 | enough cells in well | 150 | 163
Ints6 | SID315468212 | -0.45 | enough cells in well | 193 | 178
4833420G17Rik | SID315472997 | – | fewer than 50 cells per well; well left out of calls | 88.6 | 108
Tssk3 | SID315471922 | 0.25 | enough cells in well | 126 | 91.5
Tssk3 | SID315471923 | 0.35 | enough cells in well | 198 | 147
Cyp2c40 | SID315466233 | -0.07 | enough cells in well | 212 | 140
Hs6st1 | SID315470847 | -1.28 | enough cells in well | 157 | 81.6
Syngr1 | SID315469553 | -1.39 (active) | enough cells in well | 59.5 | 52.3
Pink1 | SID315473675 | 0.59 | enough cells in well | 279 | 152
Plekha1 | SID315476277 | 0.5 | enough cells in well | 180 | 190
Smpd4 | SID315475489 | 1.48 | enough cells in well | 246 | 107
Bhlha15 | SID315467927 | 0.14 | enough cells in well | 193 | 158
Klhl11 | SID315478086 | -0.17 | enough cells in well | 152 | 143
Elane | SID315470813 | -0.22 | enough cells in well | 246 | 188
Nefl | SID315468162 | -0.28 | enough cells in well | 229 | 195
Ift46 | SID315475341 | 2.02 | enough cells in well | 407 | 139
Or8g2b | SID315480266 | – | fewer than 50 cells per well; well left out of calls | 58.4 | 95.3

Reformatted: results already given
gene,PubChem SID,Tnf reporter robust z-score,fewer than 50 cells in well,"Tnf reporter intensity, replicate 1","Tnf reporter intensity, replicate 2"
Clec1a,SID315479695,-0.65,enough cells in well,121,126
Spart,SID315478696,0.11,enough cells in well,276,234
Cul4b,SID315474584,0.11,enough cells in well,271,183
Or4a47,SID315480595,0.8,enough cells in well,237,148
Parvb,SID315477208,-0.65,enough cells in well,118,78.7
Mc3r,SID315467855,-0.25,enough cells in well,195,275
Rrp1b,SID315474554,,fewer than 50 cells per well; well left out of calls,122,28.4
Gpn1,SID315474922,0.85,enough cells in well,121,205
Or1q1,SID315480275,-1.55 (active),enough cells in well,99.5,48.4
Serpina3k,SID315469414,1.17,enough cells in well,130,154
Idh1,SID315467370,-0.5,enough cells in well,178,96.5
Sesn1,SID315477145,-0.3,enough cells in well,227,213
Gosr2,SID315471573,-0.39,enough cells in well,172,195
